# From article PMC13323110
# Results are given in words; binding and its absence hold for the method and conditions named. For part of these data: A result given as binding can be weak or reduced; the word gives no strength. For part of these data: Where a sequence is shown, tags or fusion partners need not be part of it.
# How the values were obtained:
# [1] = molecular target: N. salsuginis TatAHisC_(strep) complex (Nitratifractor salsuginis); experiment: pull-down; N. salsuginis TatABC, TatBC or TatAC held by TatC-strep on Streptactin XT resin and washed, purified CueO or MdoD added for 2 h; 50 mM sodium phosphate pH 8.0, 150 mM NaCl, 1 mM EDTA, 0.02% GDN; immunoblot for the tags; both purified
# [2] = molecular target: N. salsuginis TatB, strep-tagged (Nitratifractor salsuginis); experiment: cryo-EM structure; 50 μl N. salsuginis TatBC (A280nm = 8.0) mixed with 50 μl CueO peptide (1 mg/ml), 12 h at 4 °C, in GDN; both purified
# [3] = molecular target: N. salsuginis TatC (GFP-His removed) (Nitratifractor salsuginis); experiment: as above
binding [1],binding [2],binding [3],Binder
no binding,,,"E. coli MdoD, full length, Myc-tagged (protein, UniProt P40120 33-551) ADSDIADGQTQRFDFSILQSMAHDLAQTAWRGAPRPLPDTLATMTPQAYNSIQYDAEKSLWHNVENRQLDAQFFHMGMGFRRRVRMFSVDPATHLAREIHFRPELFKYNDAGVDTKQLEGQSDLGFAGFRVFKAPELARRDVVSFLGASYFRAVDDTYQYGLSARGLAIDTYTDSKEEFPDFTAFWFDTVKPGATTFTVYALLDSASITGAYKFTIHCEKSQVIMDVENHLYARKDIKQLGIAPMTSMFSCGTNERRMCDTIHPQIHDSDRLSMWRGNGEWICRPLNNPQKLQFNAYTDNNPKGFGLLQLDRDFSHYQDIMGWYNKRPSLWVEPRNKWGKGTIGLMEIPTTGETLDNIVCFWQPEKAVKAGDEFAFQYRLYWSAQPPVHCPLARVMATRTGMGGFSEGWAPGEHYPEKWARRFAVDFVGGDLKAAAPKGIEPVITLSSGEAKQIEILYIEPIDGYRIQFDWYPTSDSTDPVDMRMYLRCQGDAISETWLYQYFPPAPDKRQYVDDRVMS"
,binds,binds,"MQRRDFLKYSVALGVASALPLWSRAVFA (peptide, UniProt P36649 1-28) [E. coli CueO signal peptide (residues 1-28)]"
